# Source: the supplement of paper PMC8728848
# The other results are listed elsewhere or left out.
# Columns and labels:
# Experiment in all cases: glycan array binding signal (z-score within array); higher = stronger binding
# Details in all cases: glycan notation: IUPAC condensed, linker removed
# [1] = biological target: Fuc(a1-2)Gal6S(b1-3)GlcNAc6S
# Summary of the method: (§1)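 Columns mapping to the same glycan were averaged after glycan names were converted to IUPAC-condensed notation. The data come from 3228 arrays in the Consortium for Functional Glycomics database, limited to those with an available protein sequence. Binding is reported as a within-array Z-score averaged across arrays of one protein sequence and across linkers.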
# [2] = biological target: Fuc(a1-2)Gal6S(b1-4)Glc
# Summary of the method: as §1
# [3] = biological target: Fuc(a1-2)Gal6S(b1-4)Glc6S
# Summary of the method: as §1
# [4] = biological target: Fuc(a1-2)[Gal(a1-3)]Gal
# Summary of the method: as §1
# [5] = biological target: Fuc(a1-2)[Gal(a1-3)]Gal(b1-3)GalNAc
# Summary of the method: as §1
# [6] = biological target: Fuc(a1-2)[Gal(a1-3)]Gal(b1-3)GalNAc(b1-3)Gal(a1-4)Gal(b1-4)Glc
# Summary of the method: as §1
# [7] = biological target: Fuc(a1-2)[Gal(a1-3)]Gal(b1-3)GlcNAc
# Summary of the method: as §1
# [8] = biological target: Fuc(a1-2)[Gal(a1-3)]Gal(b1-3)GlcNAc(b1-2)Man(a1-3)[Fuc(a1-2)[Gal(a1-3)]Gal(b1-3)GlcNAc(b1-2)Man(a1-6)]Man(b1-4)GlcNAc(b1-4)GlcNAc
# Summary of the method: as §1
# [9] = biological target: Fuc(a1-2)[Gal(a1-3)]Gal(b1-3)GlcNAc(b1-2)Man(a1-3)[Fuc(a1-2)[Gal(a1-3)]Gal(b1-3)GlcNAc(b1-2)Man(a1-6)]Man(b1-4)GlcNAc(b1-4)[Fuc(a1-6)]GlcNAc
# Summary of the method: as §1
# [10] = biological target: Fuc(a1-2)[Gal(a1-3)]Gal(b1-3)GlcNAc(b1-3)GalNAc
# Summary of the method: as §1
# [11] = biological target: Fuc(a1-2)[Gal(a1-3)]Gal(b1-3)GlcNAc(b1-6)GalNAc
# Summary of the method: as §1
# [12] = biological target: Fuc(a1-2)[Gal(a1-3)]Gal(b1-4)Glc
# Summary of the method: as §1
# [13] = biological target: Fuc(a1-2)[Gal(a1-3)]Gal(b1-4)GlcNAc
# Summary of the method: as §1
# [14] = biological target: Fuc(a1-2)[Gal(a1-3)]Gal(b1-4)GlcNAc(b1-2)Man
# Summary of the method: as §1
# [15] = biological target: Fuc(a1-2)[Gal(a1-3)]Gal(b1-4)GlcNAc(b1-2)Man(a1-3)[Fuc(a1-2)[Gal(a1-3)]Gal(b1-4)GlcNAc(b1-2)Man(a1-6)]Man(b1-4)GlcNAc(b1-4)GlcNAc
# Summary of the method: as §1
# [16] = biological target: Fuc(a1-2)[Gal(a1-3)]Gal(b1-4)GlcNAc(b1-2)Man(a1-3)[Fuc(a1-2)[Gal(a1-3)]Gal(b1-4)GlcNAc(b1-2)Man(a1-6)]Man(b1-4)GlcNAc(b1-4)[Fuc(a1-6)]GlcNAc
# Summary of the method: as §1
# [17] = biological target: Fuc(a1-2)[Gal(a1-3)]Gal(b1-4)GlcNAc(b1-3)GalNAc
# Summary of the method: as §1
# [18] = biological target: Fuc(a1-2)[Gal(a1-3)]Gal(b1-4)GlcNAc(b1-3)[Fuc(a1-2)[Gal(a1-3)]Gal(b1-4)GlcNAc(b1-6)]GalNAc
# Summary of the method: as §1
# [19] = biological target: Fuc(a1-2)[Gal(a1-3)]Gal(b1-4)GlcNAc(b1-6)GalNAc
# Summary of the method: as §1
# [20] = biological target: Fuc(a1-2)[Gal(a1-3)]Gal(b1-4)[Fuc(a1-3)]Glc
# Summary of the method: as §1
# [21] = biological target: Fuc(a1-2)[Gal(a1-3)]Gal(b1-4)[Fuc(a1-3)]GlcNAc
# Summary of the method: as §1
# [22] = biological target: Fuc(a1-2)[Gal(a1-3)]Gal(b1-4)[Fuc(a1-3)]GlcNAc(b1-3)GalNAc
# Summary of the method: as §1
# [23] = biological target: Fuc(a1-2)[Gal(a1-4)]Gal(b1-4)GlcNAc
# Summary of the method: as §1
# [24] = biological target: Fuc(a1-2)[GalNAc(a1-3)]Gal
# Summary of the method: as §1
# [25] = biological target: Fuc(a1-2)[GalNAc(a1-3)]Gal(b1-3)GalNAc(a1-3)[Fuc(a1-2)]Gal(b1-4)GlcNAc
# Summary of the method: as §1
# [26] = biological target: Fuc(a1-2)[GalNAc(a1-3)]Gal(b1-3)GalNAc(b1-3)Gal(a1-4)Gal(b1-4)Glc
# Summary of the method: as §1
# [27] = biological target: Fuc(a1-2)[GalNAc(a1-3)]Gal(b1-3)GlcNAc
# Summary of the method: as §1
# [28] = biological target: Fuc(a1-2)[GalNAc(a1-3)]Gal(b1-3)GlcNAc(b1-2)Man(a1-3)[Fuc(a1-2)[GalNAc(a1-3)]Gal(b1-3)GlcNAc(b1-2)Man(a1-6)]Man(b1-4)GlcNAc(b1-4)GlcNAc
# Summary of the method: as §1
# [29] = biological target: Fuc(a1-2)[GalNAc(a1-3)]Gal(b1-3)GlcNAc(b1-2)Man(a1-3)[Fuc(a1-2)[GalNAc(a1-3)]Gal(b1-3)GlcNAc(b1-2)Man(a1-6)]Man(b1-4)GlcNAc(b1-4)[Fuc(a1-6)]GlcNAc
# Summary of the method: as §1
# [30] = biological target: Fuc(a1-2)[GalNAc(a1-3)]Gal(b1-3)GlcNAc(b1-3)GalNAc
# Summary of the method: as §1
# [31] = biological target: Fuc(a1-2)[GalNAc(a1-3)]Gal(b1-3)GlcNAc(b1-6)GalNAc
# Summary of the method: as §1
# [32] = biological target: Fuc(a1-2)[GalNAc(a1-3)]Gal(b1-4)Glc
# Summary of the method: as §1
# [33] = biological target: Fuc(a1-2)[GalNAc(a1-3)]Gal(b1-4)GlcNAc
# Summary of the method: as §1
# [34] = biological target: Fuc(a1-2)[GalNAc(a1-3)]Gal(b1-4)GlcNAc(b1-2)Man
# Summary of the method: as §1
# [35] = biological target: Fuc(a1-2)[GalNAc(a1-3)]Gal(b1-4)GlcNAc(b1-2)Man(a1-3)[Fuc(a1-2)[GalNAc(a1-3)]Gal(b1-4)GlcNAc(b1-2)Man(a1-6)]Man(b1-4)GlcNAc(b1-4)GlcNAc
# Summary of the method: as §1
# [36] = biological target: Fuc(a1-2)[GalNAc(a1-3)]Gal(b1-4)GlcNAc(b1-2)Man(a1-3)[Fuc(a1-2)[GalNAc(a1-3)]Gal(b1-4)GlcNAc(b1-2)Man(a1-6)]Man(b1-4)GlcNAc(b1-4)[Fuc(a1-6)]GlcNAc
# Summary of the method: as §1
# [37] = biological target: Fuc(a1-2)[GalNAc(a1-3)]Gal(b1-4)GlcNAc(b1-3)Gal(b1-4)GlcNAc
# Summary of the method: as §1
# [38] = biological target: Fuc(a1-2)[GalNAc(a1-3)]Gal(b1-4)GlcNAc(b1-3)Gal(b1-4)GlcNAc(b1-3)Gal(b1-4)GlcNAc
# Summary of the method: as §1
# [39] = biological target: Fuc(a1-2)[GalNAc(a1-3)]Gal(b1-4)GlcNAc(b1-3)GalNAc
# Summary of the method: as §1
# [40] = biological target: Fuc(a1-2)[GalNAc(a1-3)]Gal(b1-4)GlcNAc(b1-3)[Fuc(a1-2)[GalNAc(a1-3)]Gal(b1-4)GlcNAc(b1-6)]GalNAc
# Summary of the method: as §1
# [41] = biological target: Fuc(a1-2)[GalNAc(a1-3)]Gal(b1-4)GlcNAc(b1-6)GalNAc
# Summary of the method: as §1
# [42] = biological target: Fuc(a1-2)[GalNAc(a1-3)]Gal(b1-4)[Fuc(a1-3)]GlcNAc
# Summary of the method: as §1
# [43] = biological target: Fuc(a1-2)[GalNAc(a1-3)]Gal(b1-4)[Fuc(a1-3)]GlcNAc(b1-3)GalNAc
# Summary of the method: as §1
# [44] = biological target: Fuc(a1-2)[GalNAc(a1-4)]Gal(b1-4)GlcNAc
# Summary of the method: as §1
# [45] = biological target: Fuc(a1-2)[GalNAc(b1-3)]Gal
# Summary of the method: as §1
binder,measurement,setting,value
Mermaid1 (Stilbonema majum) (protein) MGSSHHHHHHSSGLVPRGSHMAASGWLRSPQGTVVKLYRRSLSWSKADEFCKDVDGRLVVDRTADMHLFLIKNVLKEKKSRVWVGLRRTAPHSRTWIWSDGTRQNEDDLDANLWLRDEPNDAAGEEECALFMYSPWEKAWGLNDYLCRGGCRSYQFICEKWIR,glycan array binding signal (z-score),[1],1.58
same,glycan array binding signal (z-score),[2],-0.65
same,glycan array binding signal (z-score),[3],-0.466
same,glycan array binding signal (z-score),[4],-0.624
same,glycan array binding signal (z-score),[5],3.08
same,glycan array binding signal (z-score),[6],-0.881
same,glycan array binding signal (z-score),[7],0.109
same,glycan array binding signal (z-score),[8],-0.403
same,glycan array binding signal (z-score),[9],-0.259
same,glycan array binding signal (z-score),[10],0.151
same,glycan array binding signal (z-score),[11],-0.589
same,glycan array binding signal (z-score),[12],-0.647
same,glycan array binding signal (z-score),[13],-0.508
same,glycan array binding signal (z-score),[14],-0.732
same,glycan array binding signal (z-score),[15],0.198
same,glycan array binding signal (z-score),[16],-0.514
same,glycan array binding signal (z-score),[17],0.09
same,glycan array binding signal (z-score),[18],-0.741
same,glycan array binding signal (z-score),[19],-0.122
same,glycan array binding signal (z-score),[20],0.038
same,glycan array binding signal (z-score),[21],-0.646
same,glycan array binding signal (z-score),[22],-0.262
same,glycan array binding signal (z-score),[23],1.5
same,glycan array binding signal (z-score),[24],-0.62
same,glycan array binding signal (z-score),[25],-0.5
same,glycan array binding signal (z-score),[26],-0.659
same,glycan array binding signal (z-score),[27],-0.629
same,glycan array binding signal (z-score),[28],-0.816
same,glycan array binding signal (z-score),[29],-0.569
same,glycan array binding signal (z-score),[30],-0.713
same,glycan array binding signal (z-score),[31],-0.028
same,glycan array binding signal (z-score),[32],-0.74
same,glycan array binding signal (z-score),[33],-0.299
same,glycan array binding signal (z-score),[34],0.26
same,glycan array binding signal (z-score),[35],-0.536
same,glycan array binding signal (z-score),[36],-0.084
same,glycan array binding signal (z-score),[37],-0.33
same,glycan array binding signal (z-score),[38],0.027
same,glycan array binding signal (z-score),[39],-0.758
same,glycan array binding signal (z-score),[40],-0.321
same,glycan array binding signal (z-score),[41],-0.173
same,glycan array binding signal (z-score),[42],0.541
same,glycan array binding signal (z-score),[43],2.43
same,glycan array binding signal (z-score),[44],0.015
same,glycan array binding signal (z-score),[45],0.226

# In another format: entries from further up
binder	measurement	setting	value
Mermaid1 (Stilbonema majum) (protein) MGSSHHHHHHSSGLVPRGSHMAASGWLRSPQGTVVKLYRRSLSWSKADEFCKDVDGRLVVDRTADMHLFLIKNVLKEKKSRVWVGLRRTAPHSRTWIWSDGTRQNEDDLDANLWLRDEPNDAAGEEECALFMYSPWEKAWGLNDYLCRGGCRSYQFICEKWIR	glycan array binding signal (z-score)	[11]	-0.589
same	glycan array binding signal (z-score)	[23]	1.5
same	glycan array binding signal (z-score)	[31]	-0.028
same	glycan array binding signal (z-score)	[39]	-0.758
